Measured values taken from patent publication US20230364204A1 (priority 2022, published 2023).
HELM strings list residues between dots; [ac] is acetyl, [am] amide, other brackets name non-standard units.

Experiment: peptide synthesis
Settings: whole synthesis

**Q.** For “PEPTIDE1{M.F.Y.P.D.S.R.C.R.G.P.S.E.T}$$$$V2.0”, which “final HPLC purity” value is on record?
**A.** 95.15%
